# PMC4921775, “Transient Fcho1/2⋅Eps15/R⋅AP-2 Nanoclusters Prime the AP-2 Clathrin Adaptor for Cargo Binding” (Developmental Cell, 2016)
# These are yes or no findings as the source states them, for the method shown. Binding calls can cover weak binding; strength is not graded here.
# Target: zebrafish Fcho1 μHD (residues 867–1,152) of the EPS15-Fcho1 μHD chimera (Danio rerio (zebrafish))
# Assay: crystal structure; EPS15 (615–637)-GAGA-zebrafish Fcho1 μHD (867–1,152) chimera; hanging drops, 100 mM Bis-Tris propane pH 6.0, 200 mM sodium citrate, 22% PEG 3350, 10 mM DTT; 2.4 Å, Xe SAD; both purified
binder,measurement,value
"TNLDFFQSDPFVGSDPFKDDPFG (peptide, UniProt P42566 615-637) [EPS15 (T615–G637) segment of the EPS15-Fcho1 μHD chimera]",binding,binds
